Measurements taken from paper PMC10158624.

By UniProt entry, the sequences of proteins in these tests, tags left out.
UniProt Q9Y520: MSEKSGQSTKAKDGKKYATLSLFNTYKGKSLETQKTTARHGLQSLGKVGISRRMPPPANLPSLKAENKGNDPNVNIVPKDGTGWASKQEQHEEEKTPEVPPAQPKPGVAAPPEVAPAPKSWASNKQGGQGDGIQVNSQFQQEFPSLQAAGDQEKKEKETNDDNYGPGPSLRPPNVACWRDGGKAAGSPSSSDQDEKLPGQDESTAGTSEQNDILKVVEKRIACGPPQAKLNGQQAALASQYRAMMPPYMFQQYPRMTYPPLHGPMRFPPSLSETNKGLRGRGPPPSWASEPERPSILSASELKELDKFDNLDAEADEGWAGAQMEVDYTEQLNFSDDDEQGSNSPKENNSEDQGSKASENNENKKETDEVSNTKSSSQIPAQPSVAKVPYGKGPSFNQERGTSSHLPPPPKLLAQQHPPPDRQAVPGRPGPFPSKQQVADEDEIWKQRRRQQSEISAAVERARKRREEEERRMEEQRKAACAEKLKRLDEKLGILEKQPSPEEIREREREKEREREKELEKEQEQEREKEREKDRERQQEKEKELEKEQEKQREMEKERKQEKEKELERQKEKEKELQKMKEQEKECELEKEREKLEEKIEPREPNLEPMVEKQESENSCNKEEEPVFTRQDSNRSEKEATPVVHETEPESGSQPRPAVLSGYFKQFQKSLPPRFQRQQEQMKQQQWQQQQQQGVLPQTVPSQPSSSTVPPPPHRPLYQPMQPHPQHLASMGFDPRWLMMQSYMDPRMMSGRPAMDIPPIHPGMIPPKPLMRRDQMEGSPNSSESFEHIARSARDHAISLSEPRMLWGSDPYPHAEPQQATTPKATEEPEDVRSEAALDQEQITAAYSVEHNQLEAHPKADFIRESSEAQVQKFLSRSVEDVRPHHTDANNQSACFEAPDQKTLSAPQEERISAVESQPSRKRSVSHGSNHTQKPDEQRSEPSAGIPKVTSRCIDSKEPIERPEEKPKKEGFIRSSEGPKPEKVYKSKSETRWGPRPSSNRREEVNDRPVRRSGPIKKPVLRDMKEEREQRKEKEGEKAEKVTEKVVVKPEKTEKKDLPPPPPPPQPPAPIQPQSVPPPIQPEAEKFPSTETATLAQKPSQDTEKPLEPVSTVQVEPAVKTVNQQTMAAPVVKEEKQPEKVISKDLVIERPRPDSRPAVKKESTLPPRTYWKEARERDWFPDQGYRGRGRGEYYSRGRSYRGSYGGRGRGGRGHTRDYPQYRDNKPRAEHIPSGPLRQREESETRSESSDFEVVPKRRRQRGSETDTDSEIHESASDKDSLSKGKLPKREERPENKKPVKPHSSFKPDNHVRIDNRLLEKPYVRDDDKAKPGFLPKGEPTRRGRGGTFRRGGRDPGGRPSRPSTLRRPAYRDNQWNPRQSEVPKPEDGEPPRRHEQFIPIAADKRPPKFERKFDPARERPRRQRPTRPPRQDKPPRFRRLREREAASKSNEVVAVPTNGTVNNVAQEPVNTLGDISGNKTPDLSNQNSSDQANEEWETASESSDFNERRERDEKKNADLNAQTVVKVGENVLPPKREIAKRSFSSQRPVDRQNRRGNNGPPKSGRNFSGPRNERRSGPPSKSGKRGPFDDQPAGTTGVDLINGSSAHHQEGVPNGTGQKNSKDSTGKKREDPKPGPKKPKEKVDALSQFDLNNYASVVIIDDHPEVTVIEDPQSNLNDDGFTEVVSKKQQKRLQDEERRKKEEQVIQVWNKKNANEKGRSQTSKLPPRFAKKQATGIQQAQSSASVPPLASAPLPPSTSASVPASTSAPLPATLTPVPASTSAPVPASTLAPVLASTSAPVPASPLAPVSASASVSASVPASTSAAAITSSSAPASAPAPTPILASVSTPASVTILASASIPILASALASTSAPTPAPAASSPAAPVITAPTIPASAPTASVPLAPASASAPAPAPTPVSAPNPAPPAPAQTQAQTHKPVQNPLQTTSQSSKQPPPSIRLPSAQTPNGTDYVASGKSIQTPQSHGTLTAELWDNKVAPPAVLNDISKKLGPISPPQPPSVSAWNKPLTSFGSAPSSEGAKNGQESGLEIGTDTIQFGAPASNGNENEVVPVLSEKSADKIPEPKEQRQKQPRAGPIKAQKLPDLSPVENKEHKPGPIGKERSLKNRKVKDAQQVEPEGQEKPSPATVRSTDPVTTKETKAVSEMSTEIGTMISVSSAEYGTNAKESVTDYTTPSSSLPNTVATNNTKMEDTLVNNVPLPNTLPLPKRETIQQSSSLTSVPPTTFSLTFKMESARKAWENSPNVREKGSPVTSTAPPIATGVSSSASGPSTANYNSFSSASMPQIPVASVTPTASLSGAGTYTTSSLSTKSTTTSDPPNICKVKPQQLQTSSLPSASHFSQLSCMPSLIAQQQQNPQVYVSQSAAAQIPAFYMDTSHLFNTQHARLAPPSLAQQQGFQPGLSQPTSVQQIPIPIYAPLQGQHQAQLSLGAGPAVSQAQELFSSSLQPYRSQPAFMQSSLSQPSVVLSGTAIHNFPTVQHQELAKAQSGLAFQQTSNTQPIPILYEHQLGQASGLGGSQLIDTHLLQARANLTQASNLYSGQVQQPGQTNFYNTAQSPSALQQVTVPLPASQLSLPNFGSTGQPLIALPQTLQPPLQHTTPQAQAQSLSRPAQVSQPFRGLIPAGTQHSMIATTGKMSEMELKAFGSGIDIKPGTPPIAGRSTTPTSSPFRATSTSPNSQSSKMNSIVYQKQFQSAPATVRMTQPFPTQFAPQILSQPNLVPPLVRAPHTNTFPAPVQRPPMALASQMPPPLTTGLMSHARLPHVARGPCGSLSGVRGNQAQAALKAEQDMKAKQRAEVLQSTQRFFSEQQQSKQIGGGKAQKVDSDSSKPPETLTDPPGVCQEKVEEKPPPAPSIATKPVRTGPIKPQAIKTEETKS
UniProt Q13283: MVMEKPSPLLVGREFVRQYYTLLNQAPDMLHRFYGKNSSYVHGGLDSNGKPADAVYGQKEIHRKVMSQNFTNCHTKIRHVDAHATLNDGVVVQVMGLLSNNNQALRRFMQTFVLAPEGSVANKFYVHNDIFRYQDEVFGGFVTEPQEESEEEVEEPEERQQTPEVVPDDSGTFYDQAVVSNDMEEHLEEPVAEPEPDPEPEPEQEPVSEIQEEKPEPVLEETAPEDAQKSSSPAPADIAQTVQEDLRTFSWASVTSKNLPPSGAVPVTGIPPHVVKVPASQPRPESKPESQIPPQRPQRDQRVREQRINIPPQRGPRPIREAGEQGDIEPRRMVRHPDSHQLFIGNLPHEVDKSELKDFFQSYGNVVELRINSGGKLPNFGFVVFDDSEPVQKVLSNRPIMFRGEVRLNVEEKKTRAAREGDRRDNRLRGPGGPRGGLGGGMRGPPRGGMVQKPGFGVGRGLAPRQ
UniProt Q9UPQ9: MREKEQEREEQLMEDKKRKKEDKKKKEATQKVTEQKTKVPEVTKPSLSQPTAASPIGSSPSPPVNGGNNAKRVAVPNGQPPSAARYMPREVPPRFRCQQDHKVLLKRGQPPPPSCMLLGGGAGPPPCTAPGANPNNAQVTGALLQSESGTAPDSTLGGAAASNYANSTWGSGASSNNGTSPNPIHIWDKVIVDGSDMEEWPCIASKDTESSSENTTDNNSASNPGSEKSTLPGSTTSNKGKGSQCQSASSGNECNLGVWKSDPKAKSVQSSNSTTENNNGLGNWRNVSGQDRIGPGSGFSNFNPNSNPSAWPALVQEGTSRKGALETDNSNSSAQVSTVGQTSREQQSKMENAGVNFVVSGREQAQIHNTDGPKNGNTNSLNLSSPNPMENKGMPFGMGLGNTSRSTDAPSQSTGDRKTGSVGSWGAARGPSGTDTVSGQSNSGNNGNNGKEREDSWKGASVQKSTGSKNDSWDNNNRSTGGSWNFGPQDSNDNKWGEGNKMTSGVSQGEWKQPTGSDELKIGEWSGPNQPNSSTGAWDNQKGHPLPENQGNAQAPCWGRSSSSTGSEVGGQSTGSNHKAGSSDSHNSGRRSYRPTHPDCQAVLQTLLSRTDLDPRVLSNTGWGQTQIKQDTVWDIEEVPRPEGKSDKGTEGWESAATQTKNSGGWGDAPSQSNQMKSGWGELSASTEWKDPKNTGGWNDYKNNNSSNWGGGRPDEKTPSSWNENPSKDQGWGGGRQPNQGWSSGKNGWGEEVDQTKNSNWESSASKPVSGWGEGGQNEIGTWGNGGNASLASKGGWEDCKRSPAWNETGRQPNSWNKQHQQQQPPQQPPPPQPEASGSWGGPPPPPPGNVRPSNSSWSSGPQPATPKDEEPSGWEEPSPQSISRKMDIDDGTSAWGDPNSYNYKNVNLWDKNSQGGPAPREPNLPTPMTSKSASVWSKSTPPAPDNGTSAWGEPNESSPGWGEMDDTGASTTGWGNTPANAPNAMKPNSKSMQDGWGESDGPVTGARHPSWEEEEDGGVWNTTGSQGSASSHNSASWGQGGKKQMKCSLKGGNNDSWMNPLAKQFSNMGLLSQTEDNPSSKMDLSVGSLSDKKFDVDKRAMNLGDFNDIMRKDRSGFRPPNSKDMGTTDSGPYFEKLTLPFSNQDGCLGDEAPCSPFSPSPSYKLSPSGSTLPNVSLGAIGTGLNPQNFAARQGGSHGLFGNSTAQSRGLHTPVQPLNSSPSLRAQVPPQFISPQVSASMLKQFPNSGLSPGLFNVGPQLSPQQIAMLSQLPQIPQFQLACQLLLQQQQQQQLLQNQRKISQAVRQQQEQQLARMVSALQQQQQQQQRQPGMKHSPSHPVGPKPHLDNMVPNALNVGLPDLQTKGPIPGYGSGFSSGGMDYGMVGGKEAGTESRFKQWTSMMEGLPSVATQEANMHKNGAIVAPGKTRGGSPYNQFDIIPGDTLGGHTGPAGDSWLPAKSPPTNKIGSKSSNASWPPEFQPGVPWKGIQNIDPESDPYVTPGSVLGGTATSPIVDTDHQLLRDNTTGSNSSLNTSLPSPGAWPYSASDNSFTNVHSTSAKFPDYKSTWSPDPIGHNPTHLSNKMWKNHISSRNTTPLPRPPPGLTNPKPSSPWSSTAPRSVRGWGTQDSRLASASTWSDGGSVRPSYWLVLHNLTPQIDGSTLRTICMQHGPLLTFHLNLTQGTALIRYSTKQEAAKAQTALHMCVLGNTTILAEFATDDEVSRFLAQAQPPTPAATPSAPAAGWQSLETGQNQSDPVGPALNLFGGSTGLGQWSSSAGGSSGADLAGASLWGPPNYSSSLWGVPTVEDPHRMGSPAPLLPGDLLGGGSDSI
UniProt Q14157: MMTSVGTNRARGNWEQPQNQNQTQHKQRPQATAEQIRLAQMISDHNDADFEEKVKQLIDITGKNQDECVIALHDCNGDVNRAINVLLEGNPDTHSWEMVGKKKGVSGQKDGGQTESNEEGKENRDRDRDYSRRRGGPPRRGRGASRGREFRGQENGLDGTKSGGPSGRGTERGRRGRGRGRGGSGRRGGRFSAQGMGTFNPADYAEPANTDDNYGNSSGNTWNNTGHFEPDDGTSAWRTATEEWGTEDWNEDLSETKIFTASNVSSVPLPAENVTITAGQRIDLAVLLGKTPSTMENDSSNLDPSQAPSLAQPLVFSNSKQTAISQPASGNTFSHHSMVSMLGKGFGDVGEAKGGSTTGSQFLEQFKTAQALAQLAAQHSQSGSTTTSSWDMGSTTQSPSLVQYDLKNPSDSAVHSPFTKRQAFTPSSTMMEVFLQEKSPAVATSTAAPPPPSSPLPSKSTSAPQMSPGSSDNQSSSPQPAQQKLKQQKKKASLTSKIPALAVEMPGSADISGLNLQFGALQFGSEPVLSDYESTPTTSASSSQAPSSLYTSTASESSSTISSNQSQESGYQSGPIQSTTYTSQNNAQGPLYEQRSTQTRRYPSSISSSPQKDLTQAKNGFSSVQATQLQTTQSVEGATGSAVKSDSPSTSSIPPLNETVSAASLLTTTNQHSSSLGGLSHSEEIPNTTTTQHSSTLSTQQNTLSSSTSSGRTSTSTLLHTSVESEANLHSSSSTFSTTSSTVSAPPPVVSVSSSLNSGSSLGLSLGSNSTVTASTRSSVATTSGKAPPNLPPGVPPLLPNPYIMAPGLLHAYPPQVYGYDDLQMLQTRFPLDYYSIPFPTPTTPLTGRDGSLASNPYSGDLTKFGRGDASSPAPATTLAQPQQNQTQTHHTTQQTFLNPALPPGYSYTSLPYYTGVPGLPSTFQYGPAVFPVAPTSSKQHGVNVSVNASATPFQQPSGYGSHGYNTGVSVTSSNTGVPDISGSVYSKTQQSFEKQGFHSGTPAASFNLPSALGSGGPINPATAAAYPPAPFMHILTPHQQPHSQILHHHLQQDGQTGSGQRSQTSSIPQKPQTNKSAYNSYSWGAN

T1: Snd1-BioID2 fusion (full-length mouse Snd1 fused to C-terminal BioID2, HA tag) (mouse) (UniProt Q78PY7)
T1 sequence: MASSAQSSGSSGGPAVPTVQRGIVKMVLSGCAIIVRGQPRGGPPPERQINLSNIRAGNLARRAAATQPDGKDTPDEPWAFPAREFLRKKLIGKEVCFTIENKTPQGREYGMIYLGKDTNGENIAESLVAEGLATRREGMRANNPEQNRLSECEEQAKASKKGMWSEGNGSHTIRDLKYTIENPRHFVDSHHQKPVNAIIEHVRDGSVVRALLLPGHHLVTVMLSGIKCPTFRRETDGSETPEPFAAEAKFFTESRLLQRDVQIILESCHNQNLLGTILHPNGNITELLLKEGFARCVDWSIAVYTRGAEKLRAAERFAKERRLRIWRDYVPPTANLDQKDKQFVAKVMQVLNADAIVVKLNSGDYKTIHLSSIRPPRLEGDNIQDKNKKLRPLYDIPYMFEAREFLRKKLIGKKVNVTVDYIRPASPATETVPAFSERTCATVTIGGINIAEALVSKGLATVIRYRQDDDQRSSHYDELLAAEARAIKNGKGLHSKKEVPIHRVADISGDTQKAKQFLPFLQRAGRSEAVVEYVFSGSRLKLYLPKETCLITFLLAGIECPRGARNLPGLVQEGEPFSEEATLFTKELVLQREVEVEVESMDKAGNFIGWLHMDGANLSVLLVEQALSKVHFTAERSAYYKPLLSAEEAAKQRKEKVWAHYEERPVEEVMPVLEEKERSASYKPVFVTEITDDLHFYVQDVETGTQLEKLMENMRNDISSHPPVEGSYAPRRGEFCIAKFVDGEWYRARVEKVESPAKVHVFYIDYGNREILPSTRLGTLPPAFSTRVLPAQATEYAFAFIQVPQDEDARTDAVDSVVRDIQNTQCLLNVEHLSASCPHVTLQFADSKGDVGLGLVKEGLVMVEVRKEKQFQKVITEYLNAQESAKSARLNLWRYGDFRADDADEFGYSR

B1: Metadherin (protein, UniProt Q86UE4 1-582)
chain: MAARSWQDELAQQAEEGSARLREMLSVGLGFLRTELGLDLGLEPKRYPGWVILVGTGALGLLLLFLLGYGWAAACAGARKKRRSPPRKREEAAAVPAAAPDDLALLKNLRSEEQKKKNRKKLSEKPKPNGRTVEVAEGEAVRTPQSVTAKQPPEIDKKNEKSKKNKKKSKSDAKAVQNSSRHDGKEVDEGAWETKISHREKRQQRKRDKVLTDSGSLDSTIPGIENTITVTTEQLTTASFPVGSKKNKGDSHLNVQVSNFKSGKGDSTLQVSSGLNENLTVNGGGWNEKSVKLSSQISAGEEKWNSVSPASAGKRKTEPSAWSQDTGDANTNGKDWGRSWSDRSIFSGIGSTAEPVSQSTTSDYQWDVSRNQPYIDDEWSGLNGLSSADPNSDWNAPAEEWGNWVDEERASLLKSQEPIPDDQKVSDDDKEKGEGALPTGKSKKKKKKKKKQGEDNSTAQDTEELEKEIREDLPVNTSKTRPKQEKAFSLKTISTSDPAEVLVKNSQPIKTLPPATSTEPSVILSKSDSDKSSSQVPPILQETDKSKSNTKQNSVPPSQTKSETSWESPKQIKKKKKARRET

Molecular target: T1, Snd1-BioID2 fusion (full-length mouse Snd1 fused to C-terminal BioID2, HA tag) (mouse)
Test: proximity labelling; BioID2: Snd1-BioID2-HA transiently expressed in HEK-293T, 10 uM biotin; non-stressed, heat shock (42°C, 12 h) or hypoxia (2% oxygen, 12 h); lysis in RIPA-500, biotinylated proteins captured on streptavidin-agarose, on-bead digestion, LC-ESI-MS/MS; proteins also found with empty BioID2 excluded

binding, binds:
DDX3X (from UniProt O00571 1-662), EIF3CL (from UniProt B5ME19 1-914), Microtubule Associated Protein 4 (from UniProt P27816 1-1152), PRRC2C (from UniProt Q9Y520 1-2896), Ras GTPase-activating protein-binding protein 1 (from UniProt Q13283 1-466), Trinucleotide repeat-containing gene 6A (from UniProt Q8NDV7 1-1962), Trinucleotide repeat-containing gene 6B (from UniProt Q9UPQ9 1-1833), UBAP2L (from UniProt Q14157 1-1087), B1

These are yes or no findings as the source states them, for the method shown. Binding seen in cells or lysates may run through a third protein. These calls come from enrichment with a bait or labelling near it, and not all partners need be listed. Sequences can lack the tags named with a protein.
